Experimental data as given in paper PMC13284301.
Results are given in words; binding and its absence hold for the method and conditions named. In cells and extracts the contact can be indirect. Binding can be weak; no strength is given. Where a sequence is shown, tags or fusion partners need not be part of it.

Sequences of proteins named here, by UniProt entry; tags and fusion partners are left off. A change or cut given only in a name is not applied to a line headed by its entry.
UniProt P41376: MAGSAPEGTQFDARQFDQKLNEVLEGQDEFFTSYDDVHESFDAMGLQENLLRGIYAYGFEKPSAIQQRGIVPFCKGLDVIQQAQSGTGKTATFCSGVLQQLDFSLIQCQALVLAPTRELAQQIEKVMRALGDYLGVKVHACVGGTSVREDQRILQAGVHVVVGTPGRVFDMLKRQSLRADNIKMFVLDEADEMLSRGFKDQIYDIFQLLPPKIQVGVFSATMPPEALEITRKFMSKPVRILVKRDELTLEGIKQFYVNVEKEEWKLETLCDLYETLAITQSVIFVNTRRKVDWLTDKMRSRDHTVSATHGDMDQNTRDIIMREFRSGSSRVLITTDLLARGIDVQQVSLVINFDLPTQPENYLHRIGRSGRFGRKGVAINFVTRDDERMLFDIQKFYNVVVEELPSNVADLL

Target: T1, SMG7-YFP (Arabidopsis thaliana) (UniProt A9QM73)
T1 sequence: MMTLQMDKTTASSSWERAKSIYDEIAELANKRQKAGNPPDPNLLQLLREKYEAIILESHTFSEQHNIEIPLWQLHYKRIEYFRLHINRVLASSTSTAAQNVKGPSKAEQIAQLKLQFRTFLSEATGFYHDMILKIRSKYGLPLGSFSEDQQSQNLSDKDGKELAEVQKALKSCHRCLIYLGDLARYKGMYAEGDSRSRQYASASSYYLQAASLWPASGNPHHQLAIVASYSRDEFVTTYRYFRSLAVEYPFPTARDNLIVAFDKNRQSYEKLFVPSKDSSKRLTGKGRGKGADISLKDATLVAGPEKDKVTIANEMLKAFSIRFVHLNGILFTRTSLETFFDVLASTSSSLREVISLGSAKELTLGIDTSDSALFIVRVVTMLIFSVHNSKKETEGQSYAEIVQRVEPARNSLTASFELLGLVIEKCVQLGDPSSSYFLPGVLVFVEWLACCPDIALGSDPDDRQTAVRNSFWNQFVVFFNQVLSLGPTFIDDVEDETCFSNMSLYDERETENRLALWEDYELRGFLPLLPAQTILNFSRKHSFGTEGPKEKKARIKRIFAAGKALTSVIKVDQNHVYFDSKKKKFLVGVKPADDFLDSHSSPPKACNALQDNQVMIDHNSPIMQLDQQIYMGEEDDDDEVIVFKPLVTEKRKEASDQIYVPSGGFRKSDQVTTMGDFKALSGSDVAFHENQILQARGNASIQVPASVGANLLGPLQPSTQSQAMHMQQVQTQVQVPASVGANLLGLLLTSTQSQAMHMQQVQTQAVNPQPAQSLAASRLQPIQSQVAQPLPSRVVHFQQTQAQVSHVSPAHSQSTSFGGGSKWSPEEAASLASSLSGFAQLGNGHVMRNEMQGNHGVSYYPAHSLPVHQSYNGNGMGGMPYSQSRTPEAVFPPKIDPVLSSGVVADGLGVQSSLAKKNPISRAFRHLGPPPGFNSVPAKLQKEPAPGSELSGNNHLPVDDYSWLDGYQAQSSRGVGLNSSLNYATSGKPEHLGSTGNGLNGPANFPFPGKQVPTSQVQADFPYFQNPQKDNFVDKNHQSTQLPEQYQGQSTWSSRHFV
Assay: FRET or BRET; FLIM-FRET, YFP on SMG7 as donor and TagRFP on eIF4A as acceptor, transiently expressed in N. tabacum leaf epidermal cells; shortening of the YFP fluorescence lifetime

eIF4A1^S146D (from UniProt P41376)
binding: binds
